Results published in PMC5842656.
Results are given in words; binding and its absence hold for the method and conditions named. Binding seen in cells or lysates may run through a third protein. Some results given as binding are weak or reduced against the parent protein; the word gives no strength.

Sequences of proteins named here, by UniProt entry; tags and fusion partners are left off.
UniProt Q9GZV5: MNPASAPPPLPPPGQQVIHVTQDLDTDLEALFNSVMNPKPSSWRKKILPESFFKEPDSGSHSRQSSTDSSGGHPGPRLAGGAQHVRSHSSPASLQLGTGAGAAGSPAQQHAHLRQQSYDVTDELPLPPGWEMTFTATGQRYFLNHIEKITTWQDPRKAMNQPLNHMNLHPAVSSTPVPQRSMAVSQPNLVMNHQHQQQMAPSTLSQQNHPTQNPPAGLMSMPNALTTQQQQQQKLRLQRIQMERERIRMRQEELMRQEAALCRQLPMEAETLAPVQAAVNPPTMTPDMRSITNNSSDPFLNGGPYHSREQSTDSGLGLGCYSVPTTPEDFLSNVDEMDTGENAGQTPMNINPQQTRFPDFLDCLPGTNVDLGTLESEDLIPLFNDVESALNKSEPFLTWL
UniProt Q13950: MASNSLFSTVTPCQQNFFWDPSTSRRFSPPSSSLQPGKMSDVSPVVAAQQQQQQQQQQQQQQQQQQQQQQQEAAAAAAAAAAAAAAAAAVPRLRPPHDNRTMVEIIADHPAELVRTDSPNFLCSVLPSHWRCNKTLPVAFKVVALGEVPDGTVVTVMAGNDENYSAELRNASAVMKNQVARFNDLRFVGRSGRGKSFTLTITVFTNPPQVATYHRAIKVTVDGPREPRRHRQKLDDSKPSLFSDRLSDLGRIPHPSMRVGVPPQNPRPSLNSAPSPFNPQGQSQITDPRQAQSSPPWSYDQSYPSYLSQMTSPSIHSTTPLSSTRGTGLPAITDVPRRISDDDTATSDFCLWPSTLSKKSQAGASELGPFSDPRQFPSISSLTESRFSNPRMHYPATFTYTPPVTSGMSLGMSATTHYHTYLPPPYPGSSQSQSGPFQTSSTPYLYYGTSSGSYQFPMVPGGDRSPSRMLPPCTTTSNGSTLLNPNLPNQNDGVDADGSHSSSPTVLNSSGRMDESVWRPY

How the values were obtained:
[1] = target: Transcriptional coactivator with PDZ-binding motif (TAZ), exogenous, overexpressed in HEK293T cells (human) (UniProt Q9GZV5); assay: co-IP; lysates of HEK293T cells infected with TAZ-overexpressing lentiviral particles, with or without TM-25659 (10 μM, 24 h); immunoprecipitated with a TAZ antibody or an IgG; Runx2 detected by Western blot; Pierce Co-Immunoprecipitation Kit
[2] = target: Transcriptional coactivator with PDZ-binding motif (TAZ), endogenous in human adipose-derived stem cells (human (endogenous in ADSCs)) (UniProt Q9GZV5); assay: co-IP; lysates of ADSCs treated with osteoinductive medium with or without TM-25659 (10 μM); immunoprecipitated with a TAZ antibody or an IgG; Runx2 detected by Western blot; Pierce Co-Immunoprecipitation Kit

Runt-related transcription factor 2 (Runx2), endogenous in HEK293T cells (from UniProt Q13950 1-521)
binding [1]: binds

Runt-related transcription factor 2 (Runx2), endogenous in human adipose-derived stem cells (from UniProt Q13950 1-521)
binding [2]: binds
